From patent US20210205286A1 come the findings set out here.

By UniProt entry, the sequences of proteins in these tests, tags left out. Where a name states a change or a piece, a line headed by the entry shows the natural chain unless it says otherwise. Chains listed by the source or under a name are the forms on record and can include a tag or linker. Residues count along the entry.
UniProt P13473, residues 29-410: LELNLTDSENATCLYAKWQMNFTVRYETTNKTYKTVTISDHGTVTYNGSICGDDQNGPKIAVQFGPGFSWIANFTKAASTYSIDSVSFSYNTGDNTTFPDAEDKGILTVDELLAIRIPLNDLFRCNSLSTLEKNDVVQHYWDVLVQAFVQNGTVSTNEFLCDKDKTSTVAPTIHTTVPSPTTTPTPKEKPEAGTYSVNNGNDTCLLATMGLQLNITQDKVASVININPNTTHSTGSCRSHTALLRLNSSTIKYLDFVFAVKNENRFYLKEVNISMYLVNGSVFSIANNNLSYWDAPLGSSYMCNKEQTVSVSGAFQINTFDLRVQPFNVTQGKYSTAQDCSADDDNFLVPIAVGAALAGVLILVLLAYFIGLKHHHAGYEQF
UniProt Q13131: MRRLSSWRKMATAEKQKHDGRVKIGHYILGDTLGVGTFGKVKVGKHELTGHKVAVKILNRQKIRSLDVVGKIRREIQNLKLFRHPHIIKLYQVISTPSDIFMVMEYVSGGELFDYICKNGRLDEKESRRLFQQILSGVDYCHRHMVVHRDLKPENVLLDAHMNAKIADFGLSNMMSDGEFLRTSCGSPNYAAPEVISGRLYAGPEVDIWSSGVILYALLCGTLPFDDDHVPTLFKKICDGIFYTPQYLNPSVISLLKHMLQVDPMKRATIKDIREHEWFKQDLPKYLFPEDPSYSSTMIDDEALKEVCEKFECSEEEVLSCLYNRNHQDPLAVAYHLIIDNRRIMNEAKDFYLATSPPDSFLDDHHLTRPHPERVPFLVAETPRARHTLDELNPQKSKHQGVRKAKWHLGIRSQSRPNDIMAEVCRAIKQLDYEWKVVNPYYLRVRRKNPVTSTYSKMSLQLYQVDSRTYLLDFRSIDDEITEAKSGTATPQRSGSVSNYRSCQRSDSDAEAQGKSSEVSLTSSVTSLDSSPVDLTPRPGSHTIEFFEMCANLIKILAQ
mCherry-Gal9 (O00182, form named): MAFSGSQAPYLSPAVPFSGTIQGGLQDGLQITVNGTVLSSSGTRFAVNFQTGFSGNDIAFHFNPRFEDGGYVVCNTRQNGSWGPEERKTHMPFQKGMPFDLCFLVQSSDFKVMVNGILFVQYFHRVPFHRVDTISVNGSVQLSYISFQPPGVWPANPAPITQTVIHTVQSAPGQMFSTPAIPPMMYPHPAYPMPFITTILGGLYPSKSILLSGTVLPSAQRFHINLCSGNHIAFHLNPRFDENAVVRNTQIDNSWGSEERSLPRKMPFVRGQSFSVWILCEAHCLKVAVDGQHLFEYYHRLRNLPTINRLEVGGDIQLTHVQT

These are yes or no findings as the source states them, for the method shown. For some assays here: Binding seen in cells or lysates may run through a third protein. Some results given as binding are weak or reduced against the parent protein; the word gives no strength. For some assays here: Where a sequence is shown, tags or fusion partners need not be part of it.

One assay has as its target T1, LAMP1 (endogenous) (UniProt P11279).
T1 sequence (looked up): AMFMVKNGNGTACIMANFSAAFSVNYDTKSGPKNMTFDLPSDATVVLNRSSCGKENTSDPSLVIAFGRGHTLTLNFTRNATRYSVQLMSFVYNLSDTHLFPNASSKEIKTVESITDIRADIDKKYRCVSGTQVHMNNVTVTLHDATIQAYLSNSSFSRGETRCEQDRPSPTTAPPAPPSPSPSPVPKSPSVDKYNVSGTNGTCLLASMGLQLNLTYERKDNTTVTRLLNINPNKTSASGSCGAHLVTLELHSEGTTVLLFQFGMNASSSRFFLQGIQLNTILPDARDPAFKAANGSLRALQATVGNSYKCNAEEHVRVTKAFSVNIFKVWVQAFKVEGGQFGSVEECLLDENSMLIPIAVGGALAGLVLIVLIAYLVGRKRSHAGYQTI
Briefly: APEX2-Gal9 proximity biotinylation, avidin bead enrichment, immunoblot (FIG. 2A). (In general: A western blot detects proteins with antibodies after separation by electrophoresis.)

In a further assay the target is LAMP2 (endogenous) (UniProt P13473). Described as above.
A further assay concerns the target AMPKα1 (endogenous) (UniProt Q13131). Briefly: APEX2-Gal9 proximity biotinylation, avidin bead enrichment, immunoblot (FIG. S4A).
Assay [1] deals with T2, GFP-TAK1 (UniProt O43318).
T2 sequence (looked up): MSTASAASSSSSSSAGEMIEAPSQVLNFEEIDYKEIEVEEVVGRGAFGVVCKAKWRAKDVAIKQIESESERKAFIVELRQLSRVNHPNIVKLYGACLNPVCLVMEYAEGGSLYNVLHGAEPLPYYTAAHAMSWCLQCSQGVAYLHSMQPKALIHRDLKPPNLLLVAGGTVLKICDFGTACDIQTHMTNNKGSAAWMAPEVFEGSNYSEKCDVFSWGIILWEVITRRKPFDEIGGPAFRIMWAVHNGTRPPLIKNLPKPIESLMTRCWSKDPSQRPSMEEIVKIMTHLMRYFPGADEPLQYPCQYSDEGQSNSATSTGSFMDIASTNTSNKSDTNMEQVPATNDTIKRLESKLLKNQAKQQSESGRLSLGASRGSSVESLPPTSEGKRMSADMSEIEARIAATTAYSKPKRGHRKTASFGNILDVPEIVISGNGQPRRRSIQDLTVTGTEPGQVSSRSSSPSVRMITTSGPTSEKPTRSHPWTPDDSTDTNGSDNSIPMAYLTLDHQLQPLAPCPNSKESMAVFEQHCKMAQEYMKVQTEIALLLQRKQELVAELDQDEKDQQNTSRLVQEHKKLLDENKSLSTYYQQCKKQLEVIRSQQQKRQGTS
The assay is described as follows: co-IP, anti-GFP IP of GFP-TAK1, blot with anti-FLAG, HEK293T, LLOMe (FIG. 4B).

The target in assay [2] is T2, GFP-TAK1. The assay is described as follows: co-IP, anti-GFP IP, blot with anti-mCherry, HeLa Flp-In Gal9^Tet-ON cells (FIG. S4B).

Take “APEX2-myc-Gal9 (from UniProt O00182 1-323)”: the binding result with LAMP1 (endogenous), with LAMP2 (endogenous) and with AMPKα1 (endogenous) was “binds” throughout.
For the substance “FLAG-Gal9^WT (from UniProt O00182 1-323)”, in the assay with GFP-TAK1 [1], the binding entry was “binds”.
For the substance “mCherry-Gal9 (from UniProt O00182 1-323)”, in the assay with GFP-TAK1 [2], the binding result was “binds”.
